# PubChem BioAssay AID504834 (National Center for Advancing Translational Sciences (NCATS), 2011)
# Screen size: about 320,000 compounds; about 22,000 (6.9%) were called active. The shares of active, inactive and inconclusive entries below differ from those in the screen. Calls come from the whole dose curve; as a rule, active = well fitted inhibition curve with a large enough effect; inconclusive = small, poorly fitted or top-dose-only effect, or another doubt; inactive = no such curve, though single readings can be large or run the other way. Potencies beside an inconclusive call are fits to weak or partial responses and may not hold up.
# Test: Primary qHTS for delayed death inhibitors of the malarial parasite plastid, 96 hour incubation
# Conditions: P. falciparum luciferase reporter growth; series mostly up to 28.7 µM
# How it was run: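 96 h incubation, 37 C, 5% CO2, of luciferase-reporter P. falciparum-infected RBCs (2% hematocrit, 0.05% parasitemia final) with test compounds; endpoint luminescence.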
# Potency is the fitted concentration of half-maximal effect.
row,Structure (SMILES),Potency
1,CC(=O)NNC(=S)NC(=O)c1ccccc1,inactive
2,CC(C)n1c(O)c(N=NC(=O)CNC(=O)c2cccnc2)c2ccccc21,"inconclusive: 18.5 µM [inhibitor, partial curve, poor fit]"
3,Cc1nn2c(NCCOCCO)c3c(nc2c1-c1ccccc1)CCCC3,"inconclusive: 18.5 µM [inhibitor, single point]"
4,O=C1NC(=O)C(=Cc2ccc(N3CCOCC3)o2)C(=O)N1,inactive
5,COc1cc(Br)cc(CN2CCN(C=O)CC2)c1O,"inconclusive: 18.5 µM [inhibitor, single point]"
6,O=C(N=Nc1c(O)[nH]c2ccccc12)c1cc(NS(=O)(=O)c2cccs2)cc(NS(=O)(=O)c2cccs2)c1,"inconclusive: 10.4 µM [inhibitor, partial curve]"
7,COC(=O)c1cc(C(=O)c2c(C)cc3ccccn23)cc([N+](=O)[O-])c1,"inconclusive: 1.65 µM [inhibitor, partial curve, poor fit]"
8,CC1(C(=O)NCCc2c[nH]c3ccccc23)C=CC2(CCCCC2)N1C(=O)c1ccccc1 (stereo not given),active: 11.7 µM
9,CCc1cc2ccc(C)cc2nc1SCC(=O)N1CCN(C(=O)c2ccco2)CC1,inactive
10,CC(C)c1ccc(NC(=O)C2CCN(S(C)(=O)=O)CC2)cc1,"inconclusive: 0.0738 µM [inhibitor, full curve, poor fit]"
11,CCN(CC)S(=O)(=O)c1ccc(-c2nnc(SCc3nnc(-c4ccccc4)o3)o2)cc1,active: 3.7 µM
12,CC(C)n1nc(C(=O)Nc2nnc(C3CC3)s2)c2ccccc2c1=O,"inconclusive: 11.7 µM [inhibitor, single point]"
13,Cc1cc(F)ccc1S(=O)(=O)Nc1ncnc2sc3c(c12)CCC3,"inconclusive: 14.7 µM [inhibitor, single point]"
14,COc1ccc(C)cc1NC(C)C(=O)NC(=O)NC1CCCCC1 (stereo not given),"inconclusive: 11.7 µM [inhibitor, single point]"
15,COc1ccc([C@H]2CC(=O)C=C(c3ccc(F)cc3OCc3ccccc3)C2)cc1OC,"inconclusive: 7.38 µM [inhibitor, partial curve, poor fit]"
16,O=[N+]([O-])c1cc(Cl)cc(/C=N/NC(=S)Nc2ccc(S(=O)(=O)N3CCOCC3)cc2)c1O,"inconclusive: 0.415 µM [inhibitor, full curve, poor fit]"
17,COc1ccc(NC(=O)c2ccc(-c3ccc([N+](=O)[O-])cc3)o2)cc1,inactive
18,Oc1ccc(/C(Cc2ccc3ccccc3n2)=N\Nc2ccccc2)c(O)c1,"inconclusive: 11.7 µM [inhibitor, partial curve, poor fit]"
19,O=C(/C=C\c1ccc2c(c1)OCO2)Nc1c2c(nn1-c1ccc(Cl)cc1)CSC2,active: 10.4 µM
20,CC(=O)c1cc(C(=O)N2CCCC(C(=O)c3ccc(Cl)cc3)C2)cs1 (stereo not given),"inconclusive: 18.5 µM [inhibitor, single point]"
21,Cc1ccc(CNC2CCCCC2)s1,"inconclusive: 6.57 µM [inhibitor, partial curve]"
22,Cc1cc(C)c(NC(=O)C2CCCN2C)c(C)c1 (stereo not given),active: 8.28 µM
23,O=c1ccc2cc3c(-c4ccccc4)coc3cc2o1,inactive

# Three compounds from above, arranged by count of non-hydrogen atoms, rising.
row,Structure (SMILES),Potency
14,COc1ccc(C)cc1NC(C)C(=O)NC(=O)NC1CCCCC1 (stereo not given),"inconclusive: 11.7 µM [inhibitor, single point]"
18,Oc1ccc(/C(Cc2ccc3ccccc3n2)=N\Nc2ccccc2)c(O)c1,"inconclusive: 11.7 µM [inhibitor, partial curve, poor fit]"
11,CCN(CC)S(=O)(=O)c1ccc(-c2nnc(SCc3nnc(-c4ccccc4)o3)o2)cc1,active: 3.7 µM

# Next part

row,Structure (SMILES),Potency
1,CC(C)CC(=O)N(c1ccc(F)cc1)C1C=CS(=O)(=O)C1 (stereo not given),"inconclusive: 2.62 µM [inhibitor, partial curve, poor fit]"
2,COc1cc(/C=C/C(=O)OCC(=O)c2ccc3c(c2)NC(=O)CO3)ccc1OC(F)F,inactive
3,CC1CCN(CCc2nc3cc(NC(=O)Nc4ccccc4)ccc3n2C)CC1,"inconclusive: 11.7 µM [inhibitor, single point]"
4,C=CCOC(=O)c1cc(-c2ccc(/C=C3\C(=O)NC(=O)C(C#N)=C3C)o2)ccc1Cl,inactive
5,CCOC(=O)[C@@H]1[C@H]2COc3ccc(Br)cc3[C@@H]2N2C(=O)N(c3ccc(C)cc3)C(=O)[C@]12C,active: 13.1 µM
6,Cn1c(Cn2cnc3ccccc32)nnc1SCC(=O)CC(=O)Nc1ccccc1,inactive
7,COc1ccccc1-c1ccc(/C=C2/C=C(C)OC2=O)o1,"inconclusive: 11.7 µM [inhibitor, single point]"
8,COc1ccc(/C=C/C(=O)OC(C)C(=O)c2ccccc2)cc1OC (stereo not given),inactive
9,CC(C)(C)c1ccc(C(=O)Nc2ccc(S(N)(=O)=O)cc2)cc1,"inconclusive: 10.4 µM [inhibitor, single point]"
10,O=C1c2oc3ccc(Cl)cc3c(=O)c2C(c2ccco2)N1CCN1CCOCC1 (stereo not given),"inconclusive: 1.04 µM [inhibitor, full curve, poor fit]"
11,O=C(Nc1nc(-c2cccnc2)cs1)c1ccccc1Cl,inactive
12,COC(=O)C1=C(c2ccc(-c3ccccc3)c(F)c2)C[C@@H]2CC[C@H]1N2C(=O)NC(C)C,"inconclusive: 18.5 µM [inhibitor, single point]"
13,Nc1nnc(-c2cc3c(ccc4ccccc43)oc2=O)s1,inactive
14,CC(=O)c1cccc(N(C(=O)CS(=O)CC(=O)Nc2ccc(F)cc2)C(C(=O)NC2CCCCC2)c2ccc(C)o2)c1 (stereo not given),active: 4.15 µM
15,CCC(C)Nc1nc(N)c([N+](=O)[O-])c(NCc2ccccc2)n1 (stereo not given),"inconclusive: 11.7 µM [inhibitor, single point]"
16,COc1cc2c(cc1OC)CN(C(=O)Nc1ccccc1)CC2,inactive
17,CCN1CCN(c2ccc([N+](=O)[O-])c(Sc3nc4ccccc4[nH]3)c2)CC1,active: 2.62 µM
18,COc1ccccc1NC(=O)NCCCCc1ccccc1,"inconclusive: 18.5 µM [inhibitor, single point]"
19,Clc1ccc(-c2nn3c(C4COc5ccccc5O4)nnc3s2)cc1 (stereo not given),"inconclusive: 0.0928 µM [inhibitor, full curve, poor fit]"
20,CC(C)(CN1CCNCC1)NS(=O)(=O)c1ccc(Cl)cc1,"inconclusive: 3.7 µM [inhibitor, full curve, poor fit]"
21,Cc1ccccc1OCC(O)CNC1CCC(NCC(O)COc2ccccc2C)CC1 (stereo not given),active: 3.7 µM
22,COc1ccc(-n2c(SCC(=O)NCc3ccco3)nc3sc4c(c3c2=O)CCN(C)C4)cc1,"inconclusive: 2.94 µM [inhibitor, single point]"
